Laboratory results taken from article PMC4734655.

Biological target: recombinant human IL-8 (interleukin-8) (human)
Assay: affinity purification with mass spectrometry; only the target purified

Binder | binding
Mycobacterium tuberculosis SerA (Rv2996c; D-3-phosphoglycerate dehydrogenase SerA1), endogenous (enzyme, UniProt P9WNX3 1-528) MSLPVVLIADKLAPSTVAALGDQVEVRWVDGPDRDKLLAAVPEADALLVRSATTVDAEVLAAAPKLKIVARAGVGLDNVDVDAATARGVLVVNAPTSNIHSAAEHALALLLAASRQIPAADASLREHTWKRSSFSGTEIFGKTVGVVGLGRIGQLVAQRIAAFGAYVVAYDPYVSPARAAQLGIELLSLDDLLARADFISVHLPKTPETAGLIDKEALAKTKPGVIIVNAARGGLVDEAALADAITGGHVRAAGLDVFATEPCTDSPLFELAQVVVTPHLGASTAEAQDRAGTDVAESVRLALAGEFVPDAVNVGGGVVNEEVAPWLDLVRKLGVLAGVLSDELPVSLSVQVRGELAAEEVEVLRLSALRGLFSAVIEDAVTFVNAPALAAERGVTAEICKASESPNHRSVVDVRAVGADGSVVTVSGTLYGPQLSQKIVQINGRHFDLRAQGINLIIHYVDRPGALGKIGTLLGTAGVNIQAAQLSEDAEGPGATILLRLDQDVPDDVRTAIAAAVDAYKLEVVDLS | binds
Mycobacterium tuberculosis AtsG (Rv0296c; arylsulfatase), endogenous (enzyme, UniProt Q6MX51 1-465) MTSERATGQRENLLIVHWHDLGRYLGVYHHPDVYSPRLDRLAAEGILFTRAHATAPLCTPSRGSLFTGRYPQSNGLVGLAHHGWEYRTGVQTLPQLLSESGWYSALFGMQHETSYPKRLGFDEFDVSNSYCEYVVAKAQDWLHNRVPALDGQRFLLTAGFFETHRPYPHERYRPADSAAVELPDYLPDTPEVRQDVAEFYGSIATADEAVGRLLDTLADTGLDASTWVVFVTDHGPAFPRAKSTLYDAGTGIALIIRPPTRRAMAPRVYDELFSGVDLVPTLLDLLRLEVPADVEGVSHAPALLAPDTENAAVRDHVYTAKTYHDSFDPIRAIRTKEYSYIENYAPRPLLDLPWDIQESPAGMAVAPLVKAPRPQRELYDLRADPTETNNLLAGDDSTQGVAAIAADLAVRLHDWRQRTADVIPSDFAGSRIAERYTETYLRIHRKTPTGRSAIAADRGIDEHCS | binds

These are yes or no findings as the source states them, for the method shown. Binding seen in cells or lysates may run through a third protein. Here binding means that the protein was enriched with, or labelled near, the bait; the list need not be complete. Sequences can lack the tags named with a protein.
